In patent publication US5219866A, “Octadecyl-[2-(N-methylpiperidino)-ethyl]-phosphate and a process for its preparation” (Asta Medica AG, priority 1991, dated 1993):
No dose or concentration is given here for some results.

Test system: human KB tumor cell line
Test: Cape-Index (WHI in vivo divided by EC90 in vitro)
Details: higher = more selective and effective

Row | Compound | Cape-Index
1 | CCCCCCCCCCCCCCCCCCOP(=O)([O-])OCC[N+]1(C)CCCCCC1 [D20918] | 0
2 | CCCCCCCCCCCCCCCCCCOP(=O)([O-])OCC[N+](C)(C)C [D 19391] | 36
3 | CCCCCCCCCCCCCCCCCCOP(=O)([O-])OCC[n+]1ccccc1 [D 19862] | 0
4 | CCCCCCCCCCCCCCCCCCOP(=O)([O-])OCC[N+]1(C)CCCCC1 [D 20133, Octadecyl-[2-(N-methylpiperidino)-ethyl]-phosphate] | 403
5 | CCCCCCCCCCCCCCCCCCOP(=O)([O-])OCC[N+]1(C)CCOCC1 [D 20680] | 0
6 | CCCCCCCCCCCCCCCCCCOP(=O)([O-])OCC[N+]1(CC)CCCCC1 [D 20931] | 13
